Test results taken from article PMC6559718 (Journal of biomolecular screening, 2016).

What was measured:
Conditions in all cases: Saccharomyces cerevisiae
in vitro [1] = assay: in vitro
in vitro [2] = assay: in vitro; remark: listed apart in the source
in vitro [3] = assay: in vitro; remark: listed apart in the source
in vitro [4] = assay: in vitro; remark: listed apart in the source

CCCCc1oc2ccccc2c1C(=O)c1cc(I)c(OCCN(CC)CC)c(I)c1 [Amiodarone]
IC50 (in vitro [1]): > 100 µM | IC50 (in vitro [2]): > 100 µM | IC50 (in vitro [3]): 37 ± 12 µM | IC50 (in vitro [4]): > 100 µM
